Consider 25 targets from the supplement of paper PMC11732987, “Enantioselective OTUD7B fragment discovery through chemoproteomics screening and high-throughput optimisation” (Communications Chemistry, 2025).

Amino acid sequences for entries named in this document (tags omitted). A change or cut given only in a name is not applied to a line headed by its entry. Residues count along the entry.
UniProt P61106, whole entry, looked up: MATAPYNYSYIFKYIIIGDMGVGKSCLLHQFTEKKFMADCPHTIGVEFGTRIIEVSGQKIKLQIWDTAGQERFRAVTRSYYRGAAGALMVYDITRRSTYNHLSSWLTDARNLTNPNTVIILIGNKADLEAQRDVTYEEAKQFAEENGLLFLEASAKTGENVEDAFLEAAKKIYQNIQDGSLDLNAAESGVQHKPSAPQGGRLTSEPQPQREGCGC
UniProt Q15185: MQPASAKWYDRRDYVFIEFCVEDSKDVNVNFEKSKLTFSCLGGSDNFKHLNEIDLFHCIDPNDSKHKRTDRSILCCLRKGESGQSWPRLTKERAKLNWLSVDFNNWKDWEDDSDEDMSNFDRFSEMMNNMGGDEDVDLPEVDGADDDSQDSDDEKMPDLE
UniProt Q15032: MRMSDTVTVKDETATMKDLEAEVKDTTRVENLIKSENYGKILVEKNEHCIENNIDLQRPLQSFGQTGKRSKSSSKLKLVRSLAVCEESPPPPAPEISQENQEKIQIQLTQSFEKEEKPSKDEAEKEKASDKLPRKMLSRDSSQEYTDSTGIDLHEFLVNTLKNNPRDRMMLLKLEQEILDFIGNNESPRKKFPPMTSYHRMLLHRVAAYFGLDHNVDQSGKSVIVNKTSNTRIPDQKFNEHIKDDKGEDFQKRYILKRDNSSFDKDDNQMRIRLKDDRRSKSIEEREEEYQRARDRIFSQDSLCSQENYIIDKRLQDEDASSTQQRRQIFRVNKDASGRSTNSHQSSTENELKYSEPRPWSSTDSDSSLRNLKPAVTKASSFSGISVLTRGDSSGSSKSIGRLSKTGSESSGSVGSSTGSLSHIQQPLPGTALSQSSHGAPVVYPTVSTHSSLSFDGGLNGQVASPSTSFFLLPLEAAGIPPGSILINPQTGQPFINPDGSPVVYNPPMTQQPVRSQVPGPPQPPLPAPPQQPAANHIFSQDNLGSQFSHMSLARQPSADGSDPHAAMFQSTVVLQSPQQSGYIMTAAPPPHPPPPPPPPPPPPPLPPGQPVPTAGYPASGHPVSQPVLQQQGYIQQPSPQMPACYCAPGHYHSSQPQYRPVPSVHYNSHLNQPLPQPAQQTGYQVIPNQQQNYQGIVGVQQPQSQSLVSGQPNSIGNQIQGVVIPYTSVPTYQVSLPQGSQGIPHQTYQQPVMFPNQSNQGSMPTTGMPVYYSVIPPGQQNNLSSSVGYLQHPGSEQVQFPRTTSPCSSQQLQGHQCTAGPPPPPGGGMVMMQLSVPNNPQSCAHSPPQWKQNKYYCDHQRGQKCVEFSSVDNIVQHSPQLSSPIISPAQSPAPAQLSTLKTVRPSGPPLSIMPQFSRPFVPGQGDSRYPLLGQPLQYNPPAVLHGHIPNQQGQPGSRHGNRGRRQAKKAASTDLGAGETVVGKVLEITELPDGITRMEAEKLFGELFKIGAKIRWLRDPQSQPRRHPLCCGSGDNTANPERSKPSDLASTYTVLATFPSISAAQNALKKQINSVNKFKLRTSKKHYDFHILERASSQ
UniProt Q15008: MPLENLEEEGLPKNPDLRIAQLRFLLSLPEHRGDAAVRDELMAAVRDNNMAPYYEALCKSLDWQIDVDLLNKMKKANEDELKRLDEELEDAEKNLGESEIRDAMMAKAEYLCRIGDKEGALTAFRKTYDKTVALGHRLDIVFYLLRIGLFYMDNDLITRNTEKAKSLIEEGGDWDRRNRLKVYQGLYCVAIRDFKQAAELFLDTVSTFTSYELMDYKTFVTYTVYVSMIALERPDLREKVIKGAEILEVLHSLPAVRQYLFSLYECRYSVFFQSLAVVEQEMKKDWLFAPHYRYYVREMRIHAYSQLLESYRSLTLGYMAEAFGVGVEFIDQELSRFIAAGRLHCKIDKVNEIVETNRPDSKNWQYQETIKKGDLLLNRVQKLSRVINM
UniProt Q9Y3P9: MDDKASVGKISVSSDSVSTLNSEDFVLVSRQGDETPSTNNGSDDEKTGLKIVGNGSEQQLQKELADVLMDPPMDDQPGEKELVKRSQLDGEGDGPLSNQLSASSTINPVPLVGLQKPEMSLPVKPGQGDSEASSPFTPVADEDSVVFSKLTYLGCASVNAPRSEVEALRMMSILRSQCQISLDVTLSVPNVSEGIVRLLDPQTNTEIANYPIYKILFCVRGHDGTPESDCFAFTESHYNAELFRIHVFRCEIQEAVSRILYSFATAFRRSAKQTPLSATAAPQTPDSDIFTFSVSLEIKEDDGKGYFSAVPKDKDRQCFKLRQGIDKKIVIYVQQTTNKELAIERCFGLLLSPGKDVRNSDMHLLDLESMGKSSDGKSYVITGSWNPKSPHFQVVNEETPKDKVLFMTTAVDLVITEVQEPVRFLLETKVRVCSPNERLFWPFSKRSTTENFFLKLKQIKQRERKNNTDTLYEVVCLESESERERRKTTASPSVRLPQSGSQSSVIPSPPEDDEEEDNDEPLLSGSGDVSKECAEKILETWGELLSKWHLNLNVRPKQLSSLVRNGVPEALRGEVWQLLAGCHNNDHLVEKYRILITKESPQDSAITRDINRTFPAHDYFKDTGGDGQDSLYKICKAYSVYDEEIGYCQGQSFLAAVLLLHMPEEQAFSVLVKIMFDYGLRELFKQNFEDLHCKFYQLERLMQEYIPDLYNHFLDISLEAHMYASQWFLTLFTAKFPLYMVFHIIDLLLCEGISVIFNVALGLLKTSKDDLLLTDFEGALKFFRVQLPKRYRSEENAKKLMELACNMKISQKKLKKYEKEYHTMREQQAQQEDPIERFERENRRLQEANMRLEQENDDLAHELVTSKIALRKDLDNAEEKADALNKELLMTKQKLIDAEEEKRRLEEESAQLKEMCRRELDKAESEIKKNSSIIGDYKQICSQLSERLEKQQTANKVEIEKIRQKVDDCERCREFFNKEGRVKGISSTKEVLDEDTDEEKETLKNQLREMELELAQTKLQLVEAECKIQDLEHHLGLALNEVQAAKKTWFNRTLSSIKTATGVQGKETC
UniProt Q92696: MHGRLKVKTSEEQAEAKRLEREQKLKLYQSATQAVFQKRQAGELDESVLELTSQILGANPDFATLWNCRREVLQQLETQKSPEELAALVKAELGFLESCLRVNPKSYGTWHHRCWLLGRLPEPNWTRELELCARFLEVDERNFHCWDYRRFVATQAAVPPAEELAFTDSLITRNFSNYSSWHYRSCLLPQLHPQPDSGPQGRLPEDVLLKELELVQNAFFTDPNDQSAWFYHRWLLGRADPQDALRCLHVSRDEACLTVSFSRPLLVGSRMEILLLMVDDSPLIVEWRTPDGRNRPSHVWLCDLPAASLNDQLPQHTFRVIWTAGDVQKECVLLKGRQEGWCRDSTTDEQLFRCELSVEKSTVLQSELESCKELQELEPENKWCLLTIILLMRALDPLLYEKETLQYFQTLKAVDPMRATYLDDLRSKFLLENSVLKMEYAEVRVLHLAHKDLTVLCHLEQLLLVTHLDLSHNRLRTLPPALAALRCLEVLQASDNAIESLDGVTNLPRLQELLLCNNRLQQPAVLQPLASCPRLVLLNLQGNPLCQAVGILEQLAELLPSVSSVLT
UniProt Q9Y606: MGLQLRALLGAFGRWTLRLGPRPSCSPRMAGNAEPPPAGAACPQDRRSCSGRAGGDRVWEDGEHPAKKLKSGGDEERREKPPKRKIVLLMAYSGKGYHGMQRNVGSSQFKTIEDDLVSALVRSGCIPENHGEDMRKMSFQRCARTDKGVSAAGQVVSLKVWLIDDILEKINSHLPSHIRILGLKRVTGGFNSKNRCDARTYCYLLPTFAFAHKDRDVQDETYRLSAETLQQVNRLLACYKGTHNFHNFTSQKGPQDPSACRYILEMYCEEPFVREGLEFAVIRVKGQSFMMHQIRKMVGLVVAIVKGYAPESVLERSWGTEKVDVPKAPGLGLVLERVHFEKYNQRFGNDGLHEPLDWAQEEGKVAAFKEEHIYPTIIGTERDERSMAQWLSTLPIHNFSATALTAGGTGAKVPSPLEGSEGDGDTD
UniProt Q96E17: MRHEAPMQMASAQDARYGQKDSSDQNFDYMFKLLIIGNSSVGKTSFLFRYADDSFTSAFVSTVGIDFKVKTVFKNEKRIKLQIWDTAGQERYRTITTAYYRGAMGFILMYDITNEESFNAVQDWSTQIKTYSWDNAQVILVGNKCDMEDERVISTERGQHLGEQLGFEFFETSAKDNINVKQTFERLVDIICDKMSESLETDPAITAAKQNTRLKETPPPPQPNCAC
UniProt Q9Y3E5: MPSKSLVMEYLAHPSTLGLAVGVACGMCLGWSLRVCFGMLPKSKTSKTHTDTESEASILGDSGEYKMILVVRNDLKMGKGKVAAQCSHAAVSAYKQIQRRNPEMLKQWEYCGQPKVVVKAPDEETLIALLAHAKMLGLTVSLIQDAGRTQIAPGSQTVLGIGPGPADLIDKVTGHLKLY
UniProt Q53H96: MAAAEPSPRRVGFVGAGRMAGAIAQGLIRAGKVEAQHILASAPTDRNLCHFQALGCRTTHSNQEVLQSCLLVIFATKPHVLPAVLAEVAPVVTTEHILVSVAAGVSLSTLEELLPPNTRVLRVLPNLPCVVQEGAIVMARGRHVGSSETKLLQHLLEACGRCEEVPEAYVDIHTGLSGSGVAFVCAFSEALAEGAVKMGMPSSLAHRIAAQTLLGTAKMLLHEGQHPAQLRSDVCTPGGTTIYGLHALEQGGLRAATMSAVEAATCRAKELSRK
UniProt O60671, 134-155: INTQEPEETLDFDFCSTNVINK
UniProt Q05397, whole entry, looked up: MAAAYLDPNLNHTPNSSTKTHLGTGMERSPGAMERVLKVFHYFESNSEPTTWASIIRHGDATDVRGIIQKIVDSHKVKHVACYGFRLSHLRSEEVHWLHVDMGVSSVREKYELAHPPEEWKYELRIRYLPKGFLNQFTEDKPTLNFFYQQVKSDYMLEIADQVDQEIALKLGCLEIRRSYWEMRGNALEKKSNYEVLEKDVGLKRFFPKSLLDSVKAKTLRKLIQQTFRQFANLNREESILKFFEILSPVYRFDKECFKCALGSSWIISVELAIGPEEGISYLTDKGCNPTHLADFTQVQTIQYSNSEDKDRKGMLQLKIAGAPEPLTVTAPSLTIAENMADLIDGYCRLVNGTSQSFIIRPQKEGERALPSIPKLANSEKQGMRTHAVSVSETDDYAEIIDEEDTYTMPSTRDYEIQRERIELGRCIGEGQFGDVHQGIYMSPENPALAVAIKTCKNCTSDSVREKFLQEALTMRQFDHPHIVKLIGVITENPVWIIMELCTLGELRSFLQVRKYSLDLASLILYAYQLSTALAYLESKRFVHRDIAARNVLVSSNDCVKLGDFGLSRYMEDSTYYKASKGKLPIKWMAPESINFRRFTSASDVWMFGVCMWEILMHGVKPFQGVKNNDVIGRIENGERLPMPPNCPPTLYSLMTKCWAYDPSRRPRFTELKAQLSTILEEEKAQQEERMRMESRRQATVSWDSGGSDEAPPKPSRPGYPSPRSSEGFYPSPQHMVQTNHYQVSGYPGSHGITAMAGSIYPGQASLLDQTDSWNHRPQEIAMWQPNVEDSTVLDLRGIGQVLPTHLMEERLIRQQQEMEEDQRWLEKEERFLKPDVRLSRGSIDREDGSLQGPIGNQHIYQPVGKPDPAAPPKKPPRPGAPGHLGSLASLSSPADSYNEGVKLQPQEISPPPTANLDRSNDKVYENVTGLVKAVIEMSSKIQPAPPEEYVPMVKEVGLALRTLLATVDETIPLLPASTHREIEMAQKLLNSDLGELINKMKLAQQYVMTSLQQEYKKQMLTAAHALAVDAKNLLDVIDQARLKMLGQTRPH
UniProt Q99952: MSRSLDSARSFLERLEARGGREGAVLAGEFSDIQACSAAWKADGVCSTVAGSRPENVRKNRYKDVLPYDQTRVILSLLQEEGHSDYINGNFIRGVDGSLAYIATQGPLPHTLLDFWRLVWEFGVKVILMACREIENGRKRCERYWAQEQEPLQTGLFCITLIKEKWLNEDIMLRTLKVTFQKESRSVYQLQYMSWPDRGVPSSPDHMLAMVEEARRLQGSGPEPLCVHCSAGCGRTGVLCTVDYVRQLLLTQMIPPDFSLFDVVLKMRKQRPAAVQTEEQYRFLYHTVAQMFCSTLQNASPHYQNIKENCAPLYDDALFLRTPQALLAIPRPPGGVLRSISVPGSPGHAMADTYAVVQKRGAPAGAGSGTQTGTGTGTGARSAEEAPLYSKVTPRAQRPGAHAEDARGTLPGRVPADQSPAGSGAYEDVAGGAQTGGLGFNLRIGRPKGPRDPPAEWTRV
UniProt P18031: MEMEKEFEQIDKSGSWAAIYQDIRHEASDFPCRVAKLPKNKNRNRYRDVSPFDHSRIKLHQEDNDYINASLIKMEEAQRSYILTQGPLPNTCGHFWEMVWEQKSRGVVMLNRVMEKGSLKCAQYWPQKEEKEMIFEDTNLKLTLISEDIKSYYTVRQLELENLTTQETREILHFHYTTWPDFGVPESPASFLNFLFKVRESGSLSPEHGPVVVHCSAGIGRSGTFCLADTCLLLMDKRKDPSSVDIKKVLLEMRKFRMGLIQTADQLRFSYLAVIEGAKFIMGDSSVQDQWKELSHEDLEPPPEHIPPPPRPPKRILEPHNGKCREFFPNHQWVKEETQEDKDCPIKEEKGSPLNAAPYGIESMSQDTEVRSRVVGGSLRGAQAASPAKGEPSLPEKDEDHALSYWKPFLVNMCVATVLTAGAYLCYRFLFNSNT

Compound in experiment [1]: ClCC(=O)N[C@@H]1CCCc2ccccc12
The experiment is described as follows: log2 mean competition ratio of IA-DTB cysteine labelling (DMSO/compound) (log2 ratio); higher = stronger cysteine engagement by compound. The conditions noted are these: treatment time: 4 h, cell line lysate: HEK293T. The protocol:
(§1)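 IA-DTB competitive cysteine chemoproteomics in HEK293T RIPA lysate. Lysates were treated with compound 29 or 30 at 50 or 200 µM for 4 h, then IA-DTB (500 µM, 1 h), trypsin-digested, NeutrAvidin-enriched and analysed by diaPASEF. Competition ratio = intensity DMSO / intensity compound (n=4 treated, n=64 DMSO); binding: mean log2 CR ≥ 1 and p ≤ 0.05 plus QC filters. Target is the cysteine site.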

Compound in experiment [2]: ClCC(=O)N[C@H]1CCCc2ccccc12
The description is as above. The conditions noted are these: treatment time: 4 h, cell line lysate: HEK293T. The protocol: as §1

The other results are listed elsewhere or left out. The data scatter; read single values as rough.

As to PSMD1 C633, the “log2 mean competition ratio” value in experiment [1] (50 µM) is 0.223; in experiment [1] (200 µM), -0.0353; in experiment [2] (50 µM), -0.152; in experiment [2] (200 µM) it was -0.374.

With PSMC4 C379 (UniProt P43686), the “log2 mean competition ratio” value in experiment [1] (50 µM) is -0.347; in experiment [1] (200 µM), 0.336; in experiment [2] (50 µM) it was -0.266; in experiment [2] (200 µM), 0.122.

On to RACK1 C168, for which the “log2 mean competition ratio” value in experiment [1] (50 µM) was 0.608; in experiment [1] (200 µM), -0.26; in experiment [2] (50 µM), 0.797; in experiment [2] (200 µM) it was -0.232.

As to RAB14 C26 (UniProt P61106), the “log2 mean competition ratio” value in experiment [1] (50 µM) was 0.0474; in experiment [1] (200 µM), -0.0561; in experiment [2] (50 µM), -0.24; in experiment [2] (200 µM), -0.213.

With PTGES3 C40 (UniProt Q15185), the “log2 mean competition ratio” value in experiment [1] (50 µM) stood at 0.464; in experiment [1] (200 µM), 0.166; in experiment [2] (50 µM) it was 0.119; in experiment [2] (200 µM), 0.11.

In the case of R3HDM1 C304 (UniProt Q15032+R3HDM1), the “log2 mean competition ratio” value in experiment [1] (50 µM) is 0.237; in experiment [1] (200 µM), -0.0942; in experiment [2] (50 µM), 0.436; in experiment [2] (200 µM), -0.0236.

In the case of PSMD4 C58, the “log2 mean competition ratio” value in experiment [1] (50 µM) was -0.102; in experiment [1] (200 µM), -0.391; in experiment [2] (50 µM), -0.0088; in experiment [2] (200 µM), -0.392.

For RAD54B C251 (UniProt Q9Y620), the “log2 mean competition ratio” value in experiment [1] (50 µM) is -0.143; in experiment [1] (200 µM) it was 0.384; in experiment [2] (50 µM), 0.0183; in experiment [2] (200 µM), 0.145.

With RAB3D C184 (UniProt O95716), the “log2 mean competition ratio” value is -0.267 in experiment [1] (50 µM), -0.0536 in experiment [1] (200 µM), 0.0167 in experiment [2] (50 µM) and -0.0134 in experiment [2] (200 µM).

Turning to PSMD1 C112, the “log2 mean competition ratio” value in experiment [1] (50 µM) was -0.253; in experiment [1] (200 µM), -0.272; in experiment [2] (50 µM), -0.282; in experiment [2] (200 µM) it was -0.288.

As to PSMD6 C266 (UniProt Q15008), the “log2 mean competition ratio” value was -0.0755 in experiment [1] (50 µM), -0.229 in experiment [1] (200 µM), 0.21 in experiment [2] (50 µM) and -0.18 in experiment [2] (200 µM).

Take RABGAP1 C155 (UniProt Q9Y3P9): the “log2 mean competition ratio” value in experiment [1] (50 µM) amounted to 0.446; in experiment [1] (200 µM), 0.315; in experiment [2] (50 µM), 0.235; in experiment [2] (200 µM), 0.0143.

Turning to PTPN12 C343 (UniProt Q05209), the “log2 mean competition ratio” value in experiment [1] (50 µM) is 0.0357; in experiment [1] (200 µM), 0.127; in experiment [2] (50 µM) it was -0.00651; in experiment [2] (200 µM) it was -0.0142.

With RABGGTA C371 (UniProt Q92696), the “log2 mean competition ratio” value in experiment [1] (50 µM) was -0.134; in experiment [1] (200 µM) it was 0.0115; in experiment [2] (50 µM) it was 0.00915; in experiment [2] (200 µM), 0.00506.

In the case of PUS1 C260 (UniProt Q9Y606), the “log2 mean competition ratio” value is -0.0555 in experiment [1] (50 µM), 0.108 in experiment [1] (200 µM), -0.0313 in experiment [2] (50 µM) and 0.187 in experiment [2] (200 µM).

Consider RAB3C C145 (UniProt Q96E17), for which the “log2 mean competition ratio” value in experiment [1] (50 µM) is -0.108; in experiment [1] (200 µM), -0.0204; in experiment [2] (50 µM) it was -0.246; in experiment [2] (200 µM) it was 0.23.

Turning to PTRH2 C111 (UniProt Q9Y3E5), the “log2 mean competition ratio” value in experiment [1] (50 µM) was -0.207; in experiment [1] (200 µM), -0.0334; in experiment [2] (50 µM) it was 0.32; in experiment [2] (200 µM), 0.0156.

Take PRR3 C143 (UniProt P79522): the “log2 mean competition ratio” value in experiment [1] (50 µM) was 0.00486; in experiment [1] (200 µM), -0.083; in experiment [2] (50 µM), -0.149; in experiment [2] (200 µM), -0.08.

On to RAB41 C30, for which the “log2 mean competition ratio” value in experiment [1] (50 µM) was 0.491; in experiment [1] (200 µM), -0.247; in experiment [2] (50 µM) it was 0.532; in experiment [2] (200 µM), -0.0412.

On to PYCR3 C266 (UniProt Q53H96), for which the “log2 mean competition ratio” value was 0.212 in experiment [1] (50 µM), 0.238 in experiment [1] (200 µM), -0.18 in experiment [2] (50 µM) and 0.235 in experiment [2] (200 µM).

In the case of RAD1 C148 (UniProt O60671), the “log2 mean competition ratio” value in experiment [1] (50 µM) was 0.111; in experiment [1] (200 µM), 0.266; in experiment [2] (50 µM) it was 0.0171; in experiment [2] (200 µM), -0.196.

In the case of PTK2 C559 (UniProt Q05397), the “log2 mean competition ratio” value in experiment [1] (50 µM) is -0.0753; in experiment [1] (200 µM) it was 0.0293; in experiment [2] (50 µM), 0.132; in experiment [2] (200 µM) it was 0.0903.

For the target PTPN11 C104, the “log2 mean competition ratio” value in experiment [1] (50 µM) was -0.0722; in experiment [1] (200 µM), -0.54; in experiment [2] (50 µM), 0.0659; in experiment [2] (200 µM), -0.283.

For PTPN18 C240 (UniProt Q99952), the “log2 mean competition ratio” value amounted to 0.341 in experiment [1] (50 µM), 0.287 in experiment [1] (200 µM), 0.299 in experiment [2] (50 µM) and 0.349 in experiment [2] (200 µM).

Turning to PTPN1 C121 (UniProt P18031), the “log2 mean competition ratio” value in experiment [1] (50 µM) was 0.216; in experiment [1] (200 µM), -0.0223; in experiment [2] (50 µM), -0.171; in experiment [2] (200 µM), 0.0467.
